Laboratory results reported in US20070184018A1, “Anthranilamide insecticides” (priority 2004, published 2007).
Some of these results come from one statement about several compounds together.

Legend:
[1] = system: diamondback moth (Plutella xylostella); experiment: Test A: control of diamondback moth on radish plant, foliar spray; type: in vivo; settings: sprayed at 50 ppm, neonate larvae, 6 days, visually assessed foliage consumed
[2] = system: fall armyworm (Spodoptera frugiperda); experiment: Test B: control of fall armyworm on corn (maize) plant, foliar spray; type: in vivo; settings: sprayed at 50 ppm, 1-day-old larvae, 6 days, visually rated

| SMILES | very good to excellent levels of plant protection (feeding damage) [1] [%] | excellent levels of plant protection (feeding damage) [2] [%] |
| --- | --- | --- |
| CC(C)NC(=O)c1cc(Br)cc(Cl)c1NC(=O)c1cc(C(F)(F)F)nn1-c1c(Cl)cccc1Cl [Compound 18] | ≤ 20 | – |
| CC(C)(C)NC(=O)c1cc(Cl)cc(Cl)c1NC(=O)c1cc(C(F)(F)F)nn1-c1ccccc1Cl [Compound 21] | ≤ 20 | ≤ 20 |
| C#CCNC(=O)c1cc(Cl)cc(Cl)c1NC(=O)c1cc(C(F)(F)F)nn1-c1ccccc1Cl [Compound 22] | ≤ 20 | ≤ 20 |
| Cc1cc(Cl)cc(C(=O)NC(C)(C)C)c1NC(=O)c1cc(Br)nn1-c1ccc(F)cc1Cl [Compound 28] | ≤ 20 | ≤ 20 |
| Cc1cc(Cl)cc(C(=O)NC(C)C)c1NC(=O)c1cc(OC(F)F)nn1-c1ccccc1Cl [Compound 29] | ≤ 20 | ≤ 20 |
| CCNC(=O)c1cc(Cl)cc(C)c1NC(=O)c1cc(OCC(F)(F)F)nn1-c1ccccc1Cl [Compound 30] | ≤ 20 | ≤ 20 |
| CNC(=O)c1cc(Br)cc(C)c1NC(=O)c1cc(OCC(F)(F)F)nn1-c1ccccc1Cl [Compound 32] | ≤ 20 | ≤ 20 |
| CNC(=O)c1cc(Cl)cc(Cl)c1NC(=O)c1cc(C(F)(F)F)nn1-c1c(C)cccc1C [Compound 36] | ≤ 20 | ≤ 20 |
| Cc1cccc(C)c1-n1nc(C(F)(F)F)cc1C(=O)Nc1c(Cl)cc(Cl)cc1C(=O)NC(C)C [Compound 37] | ≤ 20 | ≤ 20 |
| CNC(=O)c1cc(C#N)cc(C)c1NC(=O)c1cc(C(F)(F)F)nn1-c1c(C)cccc1C [Compound 38] | ≤ 20 | ≤ 20 |
| Cc1cc(C#N)cc(C(=O)NC(C)C)c1NC(=O)c1cc(C(F)(F)F)nn1-c1c(C)cccc1C [Compound 39] | ≤ 20 | ≤ 20 |
| CNC(=O)c1cc(Cl)cc(C)c1NC(=O)c1cc(C(F)(F)F)nn1-c1c(C)cccc1C [Compound 40] | ≤ 20 | ≤ 20 |
| Cc1cc(Cl)cc(C(=O)NC(C)C)c1NC(=O)c1cc(C(F)(F)F)nn1-c1c(C)cccc1C [Compound 41] | ≤ 20 | ≤ 20 |
| CNC(=O)c1cc(C#N)cc(Cl)c1NC(=O)c1cc(C(F)(F)F)nn1-c1ccccc1Cl [Compound 42] | ≤ 20 | ≤ 20 |
| CC(C)NC(=O)c1cc(C#N)cc(Cl)c1NC(=O)c1cc(C(F)(F)F)nn1-c1ccccc1Cl [Compound 43] | ≤ 20 | ≤ 20 |
| CC(C)NC(=O)c1cc(C#N)cc(Br)c1NC(=O)c1cc(C(F)(F)F)nn1-c1c(Cl)cccc1Cl [Compound 52] | ≤ 20 | ≤ 20 |
| N#CCNC(=O)c1cc(C#N)cc(Br)c1NC(=O)c1cc(Br)nn1-c1ccccc1F [Compound 56] | ≤ 20 | – |
| CC(C)NC(=O)c1cc(Cl)cc(Cl)c1NC(=O)c1cc(C(F)(F)F)nn1-c1c(Cl)cccc1Cl [Compound 58] | ≤ 20 | ≤ 20 |
| CNC(=O)c1cc(Cl)cc(Cl)c1NC(=O)c1cc(Br)nn1-c1ccccc1F [Compound 60] | ≤ 20 | ≤ 20 |
| CC(C)NC(=O)c1cc(Cl)cc(Cl)c1NC(=O)c1cc(Br)nn1-c1ccccc1F [Compound 61] | ≤ 20 | ≤ 20 |

| SMILES | very good to excellent levels of plant protection (feeding damage) [1] [%] | excellent levels of plant protection (feeding damage) [2] [%] |
| --- | --- | --- |
| CNC(=O)c1cc(C#N)cc(Cl)c1NC(=O)c1cc(Br)nn1-c1ccccc1F [Compound 62] | ≤ 20 | ≤ 20 |
| CC(C)NC(=O)c1cc(C#N)cc(Cl)c1NC(=O)c1cc(Br)nn1-c1ccccc1F [Compound 63] | ≤ 20 | ≤ 20 |
| N#Cc1cc(Cl)c(NC(=O)c2cc(Br)nn2-c2ccccc2F)c(C(N)=O)c1 [Compound 64] | ≤ 20 | – |
| NC(=O)c1cc(Br)cc(Br)c1NC(=O)c1cc(Br)nn1-c1ccccc1Cl [Compound 66] | ≤ 20 | ≤ 20 |
| CNC(=O)c1cc(C#N)cc(Cl)c1NC(=O)c1cc(C(F)(F)F)nn1-c1c(Cl)cccc1Cl [Compound 73] | ≤ 20 | – |
| C#CCNC(=O)c1cc(C#N)cc(Cl)c1NC(=O)c1cc(C(F)(F)F)nn1-c1c(Cl)cccc1Cl [Compound 76] | ≤ 20 | – |
| CNC(=O)c1cc(C#N)cc(I)c1NC(=O)c1cc(Br)nn1-c1ccccc1Cl [Compound 78] | ≤ 20 | – |
| CNC(=O)c1cc(C#N)cc(C)c1NC(=O)c1cc(Br)nn1-c1ccc(F)cc1Cl [Compound 104] | – | ≤ 20 |
| Cc1cc(C#N)cc(C(=O)NC(C)C)c1NC(=O)c1cc(Cl)nn1-c1ccccc1Cl [Compound 108] | – | ≤ 20 |
| CNC(=O)c1cc(C#N)cc(C)c1NC(=O)c1cc(Cl)nn1-c1c(C)cc(Cl)cc1Cl [Compound 113] | – | ≤ 20 |
| Cc1cc(C#N)cc(C(=O)NC(C)C)c1NC(=O)c1cc(Cl)nn1-c1c(C)cc(Cl)cc1Cl [Compound 114] | – | ≤ 20 |
| CNC(=O)c1cc(Cl)cc(Cl)c1NC(=O)c1cc(Cl)nn1-c1ccc(F)cc1Cl [Compound 115] | – | ≤ 20 |
| CNC(=O)c1cc(C#N)cc(C)c1NC(=O)c1cc(Cl)nn1-c1c(Cl)cc(Cl)cc1Cl [Compound 122] | – | ≤ 20 |
| Cc1cc(C#N)cc(C(=O)NC(C)C)c1NC(=O)c1cc(Cl)nn1-c1c(Cl)cc(Cl)cc1Cl [Compound 123] | – | ≤ 20 |
| CNC(=O)c1cc(Cl)cc(Cl)c1NC(=O)c1cc(Cl)nn1-c1c(Cl)cc(Cl)cc1Cl [Compound 124] | – | ≤ 20 |
| CC(C)NC(=O)c1cc(Cl)cc(Cl)c1NC(=O)c1cc(Cl)nn1-c1c(Cl)cc(Cl)cc1Cl [Compound 125] | – | ≤ 20 |
| CNC(=O)c1cc(C#N)cc(C)c1NC(=O)c1cc(Cl)nn1-c1c(Cl)cccc1Cl [Compound 126] | – | ≤ 20 |
| NC(=O)c1cc(Cl)cc(Cl)c1NC(=O)c1cc(Cl)nn1-c1c(Cl)cc(Cl)cc1Cl [Compound 128] | – | ≤ 20 |
| CC(C)NC(=O)c1cc(Cl)cc(Cl)c1NC(=O)c1cc(Cl)nn1-c1ccc(F)cc1Cl [Compound 129] | – | ≤ 20 |
